One molecule from US20210206882A1 (AB STUDIO, published 2021) can be followed below.

This test addresses T1, CD55 (UniProt P08174 35-353, limits assumed).
T1 construct: In the internalization assay CD55 stood on MDA231 and SIHA cells
T1 sequence (looked up): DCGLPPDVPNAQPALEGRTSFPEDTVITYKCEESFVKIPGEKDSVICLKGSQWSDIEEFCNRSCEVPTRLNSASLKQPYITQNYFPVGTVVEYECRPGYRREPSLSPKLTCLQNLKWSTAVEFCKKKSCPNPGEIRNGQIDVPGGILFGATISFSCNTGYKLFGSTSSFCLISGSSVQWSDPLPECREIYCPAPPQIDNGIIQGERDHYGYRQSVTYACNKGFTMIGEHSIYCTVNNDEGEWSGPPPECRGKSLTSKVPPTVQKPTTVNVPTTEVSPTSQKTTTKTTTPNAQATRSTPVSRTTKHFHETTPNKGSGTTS
As to the kind of experiment: flow cytometry cell binding on MDA231 cells, MFI of Cy3 goat anti-human IgG; caption read as 'Ab Concentration: 0.63 µg/mL'.

These are yes or no findings as the source states them, for the method shown. Some entries that bind do so weakly or less than the wild type.

B1: Anti-CD55 homodimer IgG (CD55 v2) containing the designed VH sequence (SEQ ID NO: 5) and the common VL2 sequence (SEQ ID NO: 7) (antibody, V domains shown)
VH: QVKLQESGGGLVKPGGSLKLSCAASGFTFSGYGMSWIRQTPGKRLEWVATINSGGSYTYYSDSVKGRFTISRDNVKNTLYLQMSSLKSEDTAMYYCARRNGTLYYYLMDYWGRGTLVTVSS
VL: QSALTQPASVSGSPGQSITISCTGTSSDVGGYNYVSWYQQHPGKAPKLMIYDVSNRPSGVSNRFSGSKSGNTASLTISGLQAEDEADYYCSSYTSSSTRIFGGGTKVTVLR
Regarding B1, the binding entry is listed as “binds”.
